Experimental data from doi:10.1101/398669.
These are yes or no findings as the source states them, for the method shown. Binding seen in cells or lysates may run through a third protein. Here binding means that the protein was enriched with, or labelled near, the bait; the list need not be complete.

Sequences of proteins named here, by UniProt entry; tags and fusion partners are left off.
UniProt P60468: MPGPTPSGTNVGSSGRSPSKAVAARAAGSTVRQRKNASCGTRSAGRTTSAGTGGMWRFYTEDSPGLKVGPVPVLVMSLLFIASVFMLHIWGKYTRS
UniProt Q07065: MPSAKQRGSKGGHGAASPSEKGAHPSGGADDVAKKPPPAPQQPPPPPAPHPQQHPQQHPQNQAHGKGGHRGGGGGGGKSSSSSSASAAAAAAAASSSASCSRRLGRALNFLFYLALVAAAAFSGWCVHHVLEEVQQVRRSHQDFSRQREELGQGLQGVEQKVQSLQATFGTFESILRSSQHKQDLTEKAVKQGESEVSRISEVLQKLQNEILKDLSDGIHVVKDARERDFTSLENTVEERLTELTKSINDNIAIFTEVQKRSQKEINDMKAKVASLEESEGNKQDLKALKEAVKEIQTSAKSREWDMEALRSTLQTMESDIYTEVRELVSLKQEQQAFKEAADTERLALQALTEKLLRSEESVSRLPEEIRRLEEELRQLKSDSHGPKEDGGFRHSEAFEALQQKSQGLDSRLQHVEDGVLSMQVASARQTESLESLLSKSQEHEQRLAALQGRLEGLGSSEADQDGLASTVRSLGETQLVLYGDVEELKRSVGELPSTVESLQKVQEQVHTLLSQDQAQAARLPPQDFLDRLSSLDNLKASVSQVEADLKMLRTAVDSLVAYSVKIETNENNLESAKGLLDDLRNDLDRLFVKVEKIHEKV
UniProt Q9UGP8: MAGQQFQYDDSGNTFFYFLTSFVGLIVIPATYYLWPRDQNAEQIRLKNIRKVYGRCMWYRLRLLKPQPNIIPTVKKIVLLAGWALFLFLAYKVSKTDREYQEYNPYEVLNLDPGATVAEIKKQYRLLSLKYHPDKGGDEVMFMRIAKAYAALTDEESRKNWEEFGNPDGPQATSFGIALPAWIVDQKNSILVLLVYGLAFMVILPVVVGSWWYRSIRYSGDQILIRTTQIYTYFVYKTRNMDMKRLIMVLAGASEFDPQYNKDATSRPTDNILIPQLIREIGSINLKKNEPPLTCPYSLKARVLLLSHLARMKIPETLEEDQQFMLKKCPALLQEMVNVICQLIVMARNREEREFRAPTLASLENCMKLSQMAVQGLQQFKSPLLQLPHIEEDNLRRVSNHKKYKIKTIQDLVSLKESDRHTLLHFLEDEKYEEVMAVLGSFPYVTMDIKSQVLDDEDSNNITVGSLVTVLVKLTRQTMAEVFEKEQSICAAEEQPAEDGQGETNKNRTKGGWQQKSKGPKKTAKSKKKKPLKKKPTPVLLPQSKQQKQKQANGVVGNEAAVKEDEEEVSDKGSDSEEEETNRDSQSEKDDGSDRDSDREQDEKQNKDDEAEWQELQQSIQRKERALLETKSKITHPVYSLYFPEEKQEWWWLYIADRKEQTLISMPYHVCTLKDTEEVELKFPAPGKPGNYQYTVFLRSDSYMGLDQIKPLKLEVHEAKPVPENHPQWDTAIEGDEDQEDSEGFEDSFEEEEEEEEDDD
UniProt P20020: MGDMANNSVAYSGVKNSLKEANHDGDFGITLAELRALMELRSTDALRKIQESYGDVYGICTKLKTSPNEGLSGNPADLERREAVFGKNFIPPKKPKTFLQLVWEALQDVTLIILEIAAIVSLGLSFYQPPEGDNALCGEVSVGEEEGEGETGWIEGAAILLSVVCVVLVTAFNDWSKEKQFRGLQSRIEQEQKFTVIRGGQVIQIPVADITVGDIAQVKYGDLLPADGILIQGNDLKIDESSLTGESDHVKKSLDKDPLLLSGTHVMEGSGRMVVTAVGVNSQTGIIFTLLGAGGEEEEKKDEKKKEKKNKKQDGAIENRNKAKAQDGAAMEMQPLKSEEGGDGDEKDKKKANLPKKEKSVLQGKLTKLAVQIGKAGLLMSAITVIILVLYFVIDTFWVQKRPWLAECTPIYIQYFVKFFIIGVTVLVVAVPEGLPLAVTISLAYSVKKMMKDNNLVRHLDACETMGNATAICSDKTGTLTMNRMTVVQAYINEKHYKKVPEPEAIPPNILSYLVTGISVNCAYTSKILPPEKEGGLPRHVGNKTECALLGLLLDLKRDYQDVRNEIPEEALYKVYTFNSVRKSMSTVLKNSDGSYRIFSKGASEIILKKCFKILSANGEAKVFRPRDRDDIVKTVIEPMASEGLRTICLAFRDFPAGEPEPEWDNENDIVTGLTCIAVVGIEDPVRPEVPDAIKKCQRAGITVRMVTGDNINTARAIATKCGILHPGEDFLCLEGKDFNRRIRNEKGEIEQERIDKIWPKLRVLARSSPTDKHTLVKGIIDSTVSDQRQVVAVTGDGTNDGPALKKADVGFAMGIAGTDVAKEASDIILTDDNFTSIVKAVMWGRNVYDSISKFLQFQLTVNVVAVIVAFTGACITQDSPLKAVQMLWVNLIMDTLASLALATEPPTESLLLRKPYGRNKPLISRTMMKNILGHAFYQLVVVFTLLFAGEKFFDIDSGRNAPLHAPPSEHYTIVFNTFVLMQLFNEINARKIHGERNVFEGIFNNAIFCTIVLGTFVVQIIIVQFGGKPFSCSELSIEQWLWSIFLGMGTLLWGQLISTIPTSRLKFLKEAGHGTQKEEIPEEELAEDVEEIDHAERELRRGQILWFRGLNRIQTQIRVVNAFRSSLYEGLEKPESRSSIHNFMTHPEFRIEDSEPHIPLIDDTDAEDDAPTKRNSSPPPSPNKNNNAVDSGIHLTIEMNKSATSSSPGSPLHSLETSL
UniProt Q14571: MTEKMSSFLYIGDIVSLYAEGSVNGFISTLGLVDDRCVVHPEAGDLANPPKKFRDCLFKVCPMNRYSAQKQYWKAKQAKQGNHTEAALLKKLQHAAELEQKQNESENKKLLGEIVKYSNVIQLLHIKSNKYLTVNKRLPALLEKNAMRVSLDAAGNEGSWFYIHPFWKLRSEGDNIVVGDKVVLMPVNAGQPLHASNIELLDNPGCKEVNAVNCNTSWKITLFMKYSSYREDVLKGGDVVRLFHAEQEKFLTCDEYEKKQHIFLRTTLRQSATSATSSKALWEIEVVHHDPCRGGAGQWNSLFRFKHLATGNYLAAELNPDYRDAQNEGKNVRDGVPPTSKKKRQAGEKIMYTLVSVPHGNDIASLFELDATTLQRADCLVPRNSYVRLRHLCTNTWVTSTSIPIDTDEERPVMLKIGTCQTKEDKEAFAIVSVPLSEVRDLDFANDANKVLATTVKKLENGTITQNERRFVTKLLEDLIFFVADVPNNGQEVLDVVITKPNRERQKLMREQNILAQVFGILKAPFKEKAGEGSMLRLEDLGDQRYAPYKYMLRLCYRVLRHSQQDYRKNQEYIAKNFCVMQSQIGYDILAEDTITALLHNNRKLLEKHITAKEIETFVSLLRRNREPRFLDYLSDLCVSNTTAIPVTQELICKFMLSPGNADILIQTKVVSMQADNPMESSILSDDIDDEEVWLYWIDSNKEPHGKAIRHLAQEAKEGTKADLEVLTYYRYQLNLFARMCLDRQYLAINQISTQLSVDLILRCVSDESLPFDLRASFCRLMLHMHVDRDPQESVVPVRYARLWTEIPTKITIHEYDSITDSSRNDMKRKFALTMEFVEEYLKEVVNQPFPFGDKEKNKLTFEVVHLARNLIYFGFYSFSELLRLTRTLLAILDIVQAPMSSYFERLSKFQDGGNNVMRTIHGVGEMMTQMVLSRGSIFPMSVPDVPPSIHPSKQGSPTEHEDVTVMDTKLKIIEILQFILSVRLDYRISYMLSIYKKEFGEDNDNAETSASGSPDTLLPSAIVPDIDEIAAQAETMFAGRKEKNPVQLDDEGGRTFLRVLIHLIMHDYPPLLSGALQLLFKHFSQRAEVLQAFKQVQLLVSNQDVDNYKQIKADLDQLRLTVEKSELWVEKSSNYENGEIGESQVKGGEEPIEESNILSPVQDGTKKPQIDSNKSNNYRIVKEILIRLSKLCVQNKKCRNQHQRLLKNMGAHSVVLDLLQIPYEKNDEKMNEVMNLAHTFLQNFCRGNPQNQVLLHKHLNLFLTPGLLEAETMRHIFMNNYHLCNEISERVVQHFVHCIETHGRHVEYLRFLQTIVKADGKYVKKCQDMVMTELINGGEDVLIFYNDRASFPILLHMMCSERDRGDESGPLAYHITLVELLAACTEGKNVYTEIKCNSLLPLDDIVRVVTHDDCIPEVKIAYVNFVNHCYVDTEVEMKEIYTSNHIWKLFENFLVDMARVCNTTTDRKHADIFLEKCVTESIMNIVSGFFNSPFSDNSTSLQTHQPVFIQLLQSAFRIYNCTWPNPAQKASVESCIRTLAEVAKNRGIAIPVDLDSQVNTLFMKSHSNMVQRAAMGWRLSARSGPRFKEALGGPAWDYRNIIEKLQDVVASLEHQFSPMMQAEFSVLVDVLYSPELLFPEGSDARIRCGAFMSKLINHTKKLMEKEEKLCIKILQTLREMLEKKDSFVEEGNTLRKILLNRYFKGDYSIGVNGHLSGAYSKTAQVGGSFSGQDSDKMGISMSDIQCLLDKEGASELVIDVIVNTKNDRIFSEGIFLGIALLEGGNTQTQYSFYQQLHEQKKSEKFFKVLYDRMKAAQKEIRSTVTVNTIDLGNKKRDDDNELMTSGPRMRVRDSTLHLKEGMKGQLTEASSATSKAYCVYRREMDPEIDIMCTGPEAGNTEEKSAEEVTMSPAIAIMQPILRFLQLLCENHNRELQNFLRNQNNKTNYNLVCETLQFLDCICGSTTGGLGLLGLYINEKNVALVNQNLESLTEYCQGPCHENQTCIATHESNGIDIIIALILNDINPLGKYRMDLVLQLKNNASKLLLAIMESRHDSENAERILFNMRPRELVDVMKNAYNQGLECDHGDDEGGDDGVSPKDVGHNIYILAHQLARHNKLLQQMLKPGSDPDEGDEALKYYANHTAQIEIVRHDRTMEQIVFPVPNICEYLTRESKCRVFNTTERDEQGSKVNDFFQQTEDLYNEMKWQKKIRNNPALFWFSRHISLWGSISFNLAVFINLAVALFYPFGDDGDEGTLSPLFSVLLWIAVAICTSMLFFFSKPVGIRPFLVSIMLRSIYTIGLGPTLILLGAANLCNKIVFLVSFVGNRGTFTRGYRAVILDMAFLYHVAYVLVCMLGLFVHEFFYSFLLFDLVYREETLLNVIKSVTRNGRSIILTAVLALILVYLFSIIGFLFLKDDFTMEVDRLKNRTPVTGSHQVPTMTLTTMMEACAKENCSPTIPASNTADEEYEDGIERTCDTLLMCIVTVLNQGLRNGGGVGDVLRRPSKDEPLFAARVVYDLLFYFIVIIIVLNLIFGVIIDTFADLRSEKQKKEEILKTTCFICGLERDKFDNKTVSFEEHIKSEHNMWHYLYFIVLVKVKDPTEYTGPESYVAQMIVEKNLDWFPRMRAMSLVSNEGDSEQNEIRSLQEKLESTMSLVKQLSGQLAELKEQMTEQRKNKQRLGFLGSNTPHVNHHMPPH
UniProt P05387: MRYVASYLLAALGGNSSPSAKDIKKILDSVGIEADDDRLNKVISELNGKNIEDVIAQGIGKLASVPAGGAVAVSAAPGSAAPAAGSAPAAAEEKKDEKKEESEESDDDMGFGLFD

Columns and labels:
Assay in all cases: proximity labelling
LRRC59-BioID = target: T1, LRRC59-BioID (UniProt Q96AG4)
T1 sequence: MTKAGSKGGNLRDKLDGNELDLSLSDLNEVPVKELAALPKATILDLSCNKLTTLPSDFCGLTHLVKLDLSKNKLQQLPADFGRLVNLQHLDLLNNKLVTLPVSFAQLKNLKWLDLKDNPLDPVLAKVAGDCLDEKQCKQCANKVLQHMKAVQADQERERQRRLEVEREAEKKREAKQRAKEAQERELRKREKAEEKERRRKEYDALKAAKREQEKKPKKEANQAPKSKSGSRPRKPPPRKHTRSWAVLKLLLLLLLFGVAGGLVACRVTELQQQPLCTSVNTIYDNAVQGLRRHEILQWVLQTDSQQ

Sec61β-BioID = Sec61β-BioID (UniProt P60468)
Ribophorin I-BioID = target: T2, Ribophorin I-BioID (UniProt P04843)
T2 sequence: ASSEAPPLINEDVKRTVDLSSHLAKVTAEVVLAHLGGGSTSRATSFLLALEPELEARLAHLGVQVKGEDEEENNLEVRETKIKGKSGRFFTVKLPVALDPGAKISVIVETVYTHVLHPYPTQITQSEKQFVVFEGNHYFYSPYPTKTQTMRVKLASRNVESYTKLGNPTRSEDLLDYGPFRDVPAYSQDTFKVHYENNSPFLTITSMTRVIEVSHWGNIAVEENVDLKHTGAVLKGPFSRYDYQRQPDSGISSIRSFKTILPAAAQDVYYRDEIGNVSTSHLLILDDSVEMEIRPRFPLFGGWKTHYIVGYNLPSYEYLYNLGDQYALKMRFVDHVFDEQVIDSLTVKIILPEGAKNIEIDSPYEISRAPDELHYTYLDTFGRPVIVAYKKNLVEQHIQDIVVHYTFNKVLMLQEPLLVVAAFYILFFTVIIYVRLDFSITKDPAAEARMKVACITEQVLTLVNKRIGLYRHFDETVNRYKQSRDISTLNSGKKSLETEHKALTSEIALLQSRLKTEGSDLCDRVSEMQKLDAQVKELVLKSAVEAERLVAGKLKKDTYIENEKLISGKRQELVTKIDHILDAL

CKAP4 (from UniProt Q07065 1-602)
binding (LRRC59-BioID): binds

Sec63 homolog (from UniProt Q9UGP8 1-760)
binding (LRRC59-BioID): binds | binding (Sec61β-BioID): binds

calcium ATPase ATP2B1 (from UniProt P20020 1-1220)
binding (Sec61β-BioID): binds

IP3 receptor/calcium channel ITPR2 (from UniProt Q14571 1-2701)
binding (Ribophorin I-BioID): binds

LA2 (from UniProt P05387 1-115)
binding (LRRC59-BioID): binds | binding (Sec61β-BioID): binds

IP3 receptor/calcium channel ITPR3 (from UniProt Q14573 1-2671)
binding (Sec61β-BioID): binds

B1: RRBP1 (p180) (protein, UniProt Q9P2E9 1-1410)
chain: MDIYDTQTLGVVVFGGFMVVSAIGIFLVSTFSMKETSYEEALANQRKEMAKTHHQKVEKKKKEKTVEKKGKTKKKEEKPNGKIPDHDPAPNVTVLLREPVRAPAVAVAPTPVQPPIIVAPVATVPAMPQEKLASSPKDKKKKEKKVAKVEPAVSSVVNSIQVLTSKAAILETAPKEVPMVVVPPVGAKGNTPATGTTQGKKAEGTQNQSKKAEGAPNQGRKAEGTPNQGKKTEGTPNQGKKAEGTPNQGKKAEGTPNQGKKAEGAQNQGKKVDTTPNQGKKVEGAPTQGRKAEGAQNQAKKVEGAQNQGKKAEGAQNQGKKGEGAQNQGKKAEGAQNQGKKAEGAQNQGKKAEGAQNQGKKAEGAQNQGKKAEGAQNQGKKAEGAQNQGKKVEGAQNQGKKAEGAQNQGKKAEGAQNQGKKAEGAQNQGKKAEGAQNQGKKAEGAQNQGKKAEGAQNQGKKAEGAQNQGKKVEGAQNQGKKAEGAQNQGKKAEGAQNQGKKAEGAQNQGQKGEGAQNQGKKTEGAQGKKAERSPNQGKKGEGAPIQGKKADSVANQGTKVEGITNQGKKAEGSPSEGKKAEGSPNQGKKADAAANQGKKTESASVQGRNTDVAQSPEAPKQEAPAKKKSGSKKKGEPGPPDADGPLYLPYKTLVSTVGSMVFNEGEAQRLIEILSEKAGIIQDTWHKATQKGDPVAILKRQLEEKEKLLATEQEDAAVAKSKLRELNKEMAAEKAKAAAGEAKVKKQLVAREQEITAVQARMQASYREHVKEVQQLQGKIRTLQEQLENGPNTQLARLQQENSILRDALNQATSQVESKQNAELAKLRQELSKVSKELVEKSEAVRQDEQQRKALEAKAAAFEKQVLQLQASHRESEEALQKRLDEVSRELCHTQSSHASLRADAEKAQEQQQQMAELHSKLQSSEAEVRSKCEELSGLHGQLQEARAENSQLTERIRSIEALLEAGQARDAQDVQASQAEADQQQTRLKELESQVSGLEKEAIELREAVEQQKVKNNDLREKNWKAMEALATAEQACKEKLLSLTQAKEESEKQLCLIEAQTMEALLALLPELSVLAQQNYTEWLQDLKEKGPTLLKHPPAPAEPSSDLASKLREAEETQSTLQAECDQYRSILAETEGMLRDLQKSVEEEEQVWRAKVGAAEEELQKSRVTVKHLEEIVEKLKGELESSDQVREHTSHLEAELEKHMAAASAECQNYAKEVAGLRQLLLESQSQLDAAKSEAQKQSDELALVRQQLSEMKSHVEDGDIAGAPASSPEAPPAEQDPVQLKTQLEWTEAILEDEQTQRQKLTAEFEEAQTSACRLQEELEKLRTAGPLESSETEEASQLKERLEKEKKLTSDLGRAATRLQELLKTTQEQLAREKDTVKKLQEQLEKAEDGSSSKEGTSV
binding (LRRC59-BioID): binds

B2: MTDH (AEG-1) (protein, UniProt Q86UE4 1-582)
chain: MAARSWQDELAQQAEEGSARLREMLSVGLGFLRTELGLDLGLEPKRYPGWVILVGTGALGLLLLFLLGYGWAAACAGARKKRRSPPRKREEAAAVPAAAPDDLALLKNLRSEEQKKKNRKKLSEKPKPNGRTVEVAEGEAVRTPQSVTAKQPPEIDKKNEKSKKNKKKSKSDAKAVQNSSRHDGKEVDEGAWETKISHREKRQQRKRDKVLTDSGSLDSTIPGIENTITVTTEQLTTASFPVGSKKNKGDSHLNVQVSNFKSGKGDSTLQVSSGLNENLTVNGGGWNEKSVKLSSQISAGEEKWNSVSPASAGKRKTEPSAWSQDTGDANTNGKDWGRSWSDRSIFSGIGSTAEPVSQSTTSDYQWDVSRNQPYIDDEWSGLNGLSSADPNSDWNAPAEEWGNWVDEERASLLKSQEPIPDDQKVSDDDKEKGEGALPTGKSKKKKKKKKKQGEDNSTAQDTEELEKEIREDLPVNTSKTRPKQEKAFSLKTISTSDPAEVLVKNSQPIKTLPPATSTEPSVILSKSDSDKSSSQVPPILQETDKSKSNTKQNSVPPSQTKSETSWESPKQIKKKKKARRET
binding (LRRC59-BioID): binds

B3: SSR1 (protein, UniProt P43307 19-286)
chain: VLFRGGPRGLLAVAQDLTEDEETVEDSIIEDEDDEAEVEEDEPTDLVEDKEEEDVSGEPEASPSADTTILFVKGEDFPANNIVKFLVGFTNKGTEDFIVESLDASFRYPQDYQFYIQNFTALPLNTVVPPQRQATFEYSFIPAEPMGGRPFGLVINLNYKDLNGNVFQDAVFNQTVTVIEREDGLDGETIFMYMFLAGLGLLVIVGLHQLLESRKRKRPIQKVEMGTSSQNDVDMSWIPQETLNQINKASPRRLPRKRAQKRSVGSDE
binding (Ribophorin I-BioID): binds

B4: STT3B (protein, UniProt Q8TCJ2 1-826)
chain: MAEPSAPESKHKSSLNSSPWSGLMALGNSRHGHHGPGAQCAHKAAGGAAPPKPAPAGLSGGLSQPAGWQSLLSFTILFLAWLAGFSSRLFAVIRFESIIHEFDPWFNYRSTHHLASHGFYEFLNWFDERAWYPLGRIVGGTVYPGLMITAGLIHWILNTLNITVHIRDVCVFLAPTFSGLTSISTFLLTRELWNQGAGLLAACFIAIVPGYISRSVAGSFDNEGIAIFALQFTYYLWVKSVKTGSVFWTMCCCLSYFYMVSAWGGYVFIINLIPLHVFVLLLMQRYSKRVYIAYSTFYIVGLILSMQIPFVGFQPIRTSEHMAAAGVFALLQAYAFLQYLRDRLTKQEFQTLFFLGVSLAAGAVFLSVIYLTYTGYIAPWSGRFYSLWDTGYAKIHIPIIASVSEHQPTTWVSFFFDLHILVCTFPAGLWFCIKNINDERVFVALYAISAVYFAGVMVRLMLTLTPVVCMLSAIAFSNVFEHYLGDDMKRENPPVEDSSDEDDKRNQGNLYDKAGKVRKHATEQEKTEEGLGPNIKSIVTMLMLMLLMMFAVHCTWVTSNAYSSPSVVLASYNHDGTRNILDDFREAYFWLRQNTDEHARVMSWWDYGYQIAGMANRTTLVDNNTWNNSHIALVGKAMSSNETAAYKIMRTLDVDYVLVIFGGVIGYSGDDINKFLWMVRIAEGEHPKDIRESDYFTPQGEFRVDKAGSPTLLNCLMYKMSYYRFGEMQLDFRTPPGFDRTRNAEIGNKDIKFKHLEEAFTSEHWLVRIYKVKAPDNRETLDHKPRVTNIFPKQKYLSKKTTKRKRGYIKNKLVFKKGKKISKKTV
binding (Ribophorin I-BioID): binds

B5: STT3A (protein, UniProt P46977 1-705)
chain: MTKFGFLRLSYEKQDTLLKLLILSMAAVLSFSTRLFAVLRFESVIHEFDPYFNYRTTRFLAEEGFYKFHNWFDDRAWYPLGRIIGGTIYPGLMITSAAIYHVLHFFHITIDIRNVCVFLAPLFSSFTTIVTYHLTKELKDAGAGLLAAAMIAVVPGYISRSVAGSYDNEGIAIFCMLLTYYMWIKAVKTGSICWAAKCALAYFYMVSSWGGYVFLINLIPLHVLVLMLTGRFSHRIYVAYCTVYCLGTILSMQISFVGFQPVLSSEHMAAFGVFGLCQIHAFVDYLRSKLNPQQFEVLFRSVISLVGFVLLTVGALLMLTGKISPWTGRFYSLLDPSYAKNNIPIIASVSEHQPTTWSSYYFDLQLLVFMFPVGLYYCFSNLSDARIFIIMYGVTSMYFSAVMVRLMLVLAPVMCILSGIGVSQVLSTYMKNLDISRPDKKSKKQQDSTYPIKNEVASGMILVMAFFLITYTFHSTWVTSEAYSSPSIVLSARGGDGSRIIFDDFREAYYWLRHNTPEDAKVMSWWDYGYQITAMANRTILVDNNTWNNTHISRVGQAMASTEEKAYEIMRELDVSYVLVIFGGLTGYSSDDINKFLWMVRIGGSTDTGKHIKENDYYTPTGEFRVDREGSPVLLNCLMYKMCYYRFGQVYTEAKRPPGFDRVRNAEIGNKDFELDVLEEAYTTEHWLVRIYKVKDLDNRGLSRT
binding (Ribophorin I-BioID): binds

B6: SRP68 (68 kDa subunit of the signal recognition particle) (protein, UniProt Q9UHB9 1-627)
chain: MAAEKQVPGGGGGGGSGGGGGSGGGGSGGGRGAGGEENKENERPSAGSKANKEFGDSLSLEILQIIKESQQQHGLRHGDFQRYRGYCSRRQRRLRKTLNFKMGNRHKFTGKKVTEELLTDNRYLLLVLMDAERAWSYAMQLKQEANTEPRKRFHLLSRLRKAVKHAEELERLCESNRVDAKTKLEAQAYTAYLSGMLRFEHQEWKAAIEAFNKCKTIYEKLASAFTEEQAVLYNQRVEEISPNIRYCAYNIGDQSAINELMQMRLRSGGTEGLLAEKLEALITQTRAKQAATMSEVEWRGRTVPVKIDKVRIFLLGLADNEAAIVQAESEETKERLFESMLSECRDAIQVVREELKPDQKQRDYILEGEPGKVSNLQYLHSYLTYIKLSTAIKRNENMAKGLQRALLQQQPEDDSKRSPRPQDLIRLYDIILQNLVELLQLPGLEEDKAFQKEIGLKTLVFKAYRCFFIAQSYVLVKKWSEALVLYDRVLKYANEVNSDAGAFKNSLKDLPDVQELITQVRSEKCSLQAAAILDANDAHQTETSSSQVKDNKPLVERFETFCLDPSLVTKQANLVHFPPGFQPIPCKPLFFDLALNHVAFPPLEDKLEQKTKSGLTGYIKGIFGFRS
binding (LRRC59-BioID): binds
